Measured values taken from patent US5362851A, “Peptide substrates, method of preparation and use in the determination of protein C” (Serbio, priority 1990, dated 1994).
Counter-ions that a name gives are not always drawn. Not every detail of the peptide structures is certain; ends, links or a residue may be inferred.

Chains of the proteins cited; added tags and fusions are not shown. Residues count along the entry.
UniProt P04070, 43-197 partner limits assumed: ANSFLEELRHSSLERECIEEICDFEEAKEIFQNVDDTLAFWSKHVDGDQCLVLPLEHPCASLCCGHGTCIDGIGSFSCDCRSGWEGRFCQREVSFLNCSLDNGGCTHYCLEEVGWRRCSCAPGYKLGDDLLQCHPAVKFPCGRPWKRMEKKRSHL
UniProt P04070, 212-461 limits assumed: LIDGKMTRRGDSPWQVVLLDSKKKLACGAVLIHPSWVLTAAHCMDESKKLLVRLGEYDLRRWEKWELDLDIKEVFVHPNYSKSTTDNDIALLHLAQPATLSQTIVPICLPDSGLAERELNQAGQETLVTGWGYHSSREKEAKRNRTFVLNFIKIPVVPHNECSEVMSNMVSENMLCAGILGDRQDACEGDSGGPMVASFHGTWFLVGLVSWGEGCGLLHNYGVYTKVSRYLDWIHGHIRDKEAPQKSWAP

Target: Protein C (Homo sapiens, UniProt P04070)
Experiment: Activity towards Protein C: hydrolysis rate of the substrate assessed by variation in optical density with time (ΔOD/min)
Type: biochemical
Settings: equimolar doses, activity of reference product of formula IIa (CP 1) specified as 100%

SMILES	Activity towards Protein C [%]
N=C(N)NCCC[C@H](NC(=O)[C@@H]1CCCN1C(=O)[C@@H]1CSC(=O)N1)C(=O)Nc1ccc([N+](=O)[O-])cc1 [Ex. 1, L-THC-L-Pro-L-Arg-pNA.H-TFA]	148
N=C(N)NCCC[C@H](NC(=O)[C@@H]1CCCN1C(=O)[C@@H]1CSC(=O)N1)C(=O)Nc1ccc([N+](=O)[O-])cc1 [Ex. 2, L-THC-L-Pro-L-Arg-pNA.AcOH]	153
